Laboratory results published in patent publication US12168773B2, “Engineered phosphoenolpyruvate carboxylase enzymes” (The Regents of the University of California, priority 2019, dated 2024).

B1: ZmPPC1 G678S: engineered Zea mays PPC1 with G678S substitution (G682S in SEQ ID NO:15) (protein)
chain: MASTKAPGPGEKHHSIDAQLRQLVPGKVSEDDKLIEYDALLVDRFLNILQDLHGPSLREFVQECYEVSADYEGKGDTTKLGELGAKLTGLAPADAILVASSILHMLNLANLAEEVQIAHRRRNSKLKKGGFADEGSATTESDIEETLKRLVSEVGKSPEEVFEALKNQTVDLVFTAHPTQSARRSLLQKNARIRNCLTQLNAKDITDDDKQELDEALQREIQAAFRTDEIRRAQPTPQDEMRYGMSYIHETVWKGVPKFLRRVDTALKNIGINERLPYNVSLIRFSSWMGGDRDGNPRVTPEVTRDVCLLARMMAANLYIDQIEELMFELSMWRCNDELRVRAEELHSSSGSKVTKYYIEFWKQIPPNEPYRVILGHVRDKLYNTRERARHLLASGVSEISAESSFTSIEEFLEPLELCYKSLCDCGDKAIADGSLLDLLRQVFTFGLSLVKLDIRQESERHTDVIDAITTHLGIGSYREWPEDKRQEWLLSELRGKRPLLPPDLPQTDEIADVIGAFHVLAELPPDSFGPYIISMATAPSDVLAVELLQRECGVRQPLPVVPLFERLADLQSAPASVERLFSVDWYMDRIKGKQQVMVGYSDSGKDAGRLSAAWQLYRAQEEMAQVAKRYGVKLTLFHGRGGTVGRGGGPTHLAILSQPPDTINGSIRVTVQGEVIEFCFSEEHLCFQTLQRFTAATLEHGMHPPVSPKPEWRKLMDEMAVVATEEYRSVVVKEARFVEYFRSATPETEYGRMNIGSRPAKRRPGGGITTLRAIPWIFSWTQTRFHLPVWLGVGAAFKFAIDKDVRNFQVLKEMYNEWPFFRVTLDLLEMVFAKGDPGIAGLYDELLVAEELKPFGKQLRDKYVETQQLLLQIAGHKDILEGDPFLKQGLVLRNPYITTLNVFQAYTLKRIRDPNFKVTPQPPLSKEFADENKPAGLVKLNPASEYPPGLEDTLILTMKGIAAGMQNTG
B2: ZmPPC1 A651V: engineered Zea mays PPC1 with A651V substitution (A655V in SEQ ID NO:15) (protein)
chain: B1 chain with A655V, S682G
B3: ZmPPC1 wild type: wild type Zea mays PPC1, C4 PEPC, SEQ ID NO:15 (protein)
chain: B1 chain with S682G
B4: ZmPPC1 T7781: engineered Zea mays PPC1 with T778I substitution (T782I in SEQ ID NO:15) (protein)
chain: B1 chain with S682G, T782I
B5: AtPPC1 wild type: wild type Arabidopsis thaliana PPC1, C3 PEPC, SEQ ID NO:1 (protein)
chain: MANRKLEKMASIDVHLRQLVPGKVSEDDKLVEYDALLLDRFLDILQDLHGEDLRETVQELYEHSAEYEGKHEPKKLEELGSVLTSLDPGDSIVIAKAFSHMLNLANLAEEVQIAYRRRIKKLKKGDFVDESSATTESDLEETFKKLVGDLNKSPEEIFDALKNQTVDLVLTAHPTQSVRRSLLQKHGRIRDCLAQLYAKDITPDDKQELDEALQREIQAAFRTDEIKRTPPTPQDEMRAGMSYFHETIWKGVPKFLRRVDTALKNIGIEERVPYNAPLIQFSSWMGGDRDGNPRVTPEVTRDVCLLARMMAATMYFNQIEDLMFEMSMWRCNDELRARADEVHANSRKDAAKHYIEFWKSIPTTEPYRVILGDVRDKLYHTRERAHQLLSNGHSDVPVEATFINLEQFLEPLELCYRSLCSCGDRPIADGSLLDFLRQVSTFGLSLVRLDIRQESDRHTDVLDAITTHLDIGSYREWSEERRQEWLLSELSGKRPLFGSDLPKTEEIADVLDTFHVIAELPADSFGAYIISMATAPSDVLAVELLQRECRVKQPLRVVPLFEKLADLEAAPAAVARLFSVDWYKNRINGKQEVMIGYSDSGKDAGRLSAAWQLYKAQEELVKVAKEYGVKLTMFHGRGGTVGRGGGPTHLAILSQPPDTINGSLRVTVQGEVIEQSFGEEHLCFRTLQRFTAATLEHGMRPPISPKPEWRALLDEMAVVATEEYRSVVFQEPRFVEYFRLATPELEYGRMNIGSRPSKRKPSGGIESLRAIPWIFAWTQTRFHLPVWLGFGSAIRHVIEKDVRNLHMLQDMYQHWPFFRVTIDLIEMVFAKGDPGIAALYDKLLVSEELWPFGEKLRANFEETKKLILQTAGHKDLLEGDPYLKQRLRLRDSYITTLNVCQAYTLKRIRDPSYHVTLRPHISKEIAESSKPAKELIELNPTSEYAPGLEDTLILTMKGIAAGLQNTG
B6: AtPPC1 A651V: engineered Arabidopsis thaliana PPC1 with A651V substitution (alr-108), SEQ ID NO:10 (protein)
chain: B5 chain with A651V
B7: AtPPC1 T778I: engineered Arabidopsis thaliana PPC1 with T778I substitution (alr-139), SEQ ID NO:12 (protein)
chain: B5 chain with T778I
B8: AtPPC1 R886G: engineered Arabidopsis thaliana PPC1 enzyme with R886G substitution (protein, UniProt Q9MAH0 1-967, looked up, variant R886G)
Phosphoenolpyruvate …: B5 chain with R886G
B9: AtPPC1 G678S: engineered Arabidopsis thaliana PPC1 with G678S substitution (alr-128), SEQ ID NO:11 (protein)
chain: B5 chain with G678S

tested on: Zea mays PPC1 (ZmPPC1, C4 PEPC); experiment: malate dehydrogenase coupled PEPC enzymatic assay, maize C4 PPC1 and engineered variants; assay type: biochemical; design: key: MX—mixed; CO—competitive; NC—non-competitive; details: inhibition by malate
Text: (§1) For both Arabidopsis C3 PPC1 (AtPPC1) and maize C4 PPC1 (ZmPPC1), the entire coding sequence for each was cloned into pET22b, which contains an amino-terminal 6×-HIS tag for protein purification, and expression was driven by the T7 promoter and lac operon. Relevant mutations were introduced by the Stratagene QuikChange mutagenesis kit using PCR amplification. Both wild type and mutant cDNA constructs were sequenced entirely following cloning into pet22b. Proteins were produced by growing transformed E. coli (BL21 CodonPlus) in autoinduction medium at 18° C. for 16 hours. Proteins were isolated by sonication of bacterial cells followed by passage over a nickel sepharose affinity column, elution with imidazole and separation on a GE SUPERDEX HILOAD 200 PG 16/60 all using an AKTA FPLC.
(§2) Enzyme analysis was conducted in vitro using protein that was generated by expression in E. coli using the pET22b vector. For expression, pET22b constructs were transformed into E. coli BL21-DE3 codon plus RIL cells and grown at 37° C. in autoinduction media until reaching an OD=1 after which these were transferred to 18° C. for 18 hours. Samples were collected and lysed by sonication. Protein was purified by passage through a His-trap nickel affinity column on an Akta FPLC and then eluted with 400 mM imidazole. Partially purified protein was then separated on an FPLC equipped with a HiPrep S200 size exclusion column (16/60) after which collected sample was concentrated by centrifugation to a final concentration of 4 mg/ml in 50% glycerol. Samples were stored at −20° C.
(§3) For enzymatic assays, a malate dehydrogenase coupled reaction was conducted with a range of substrate concentrations (0-7.5 mM phosphoenolpyruvate pyruvate) and a range of concentrations of allosteric inhibitor (0-50 mM malate). Assays were monitored using a Victor2 microplate reader at 25° C. Reactions consisted of […] PPC enzyme variants, 50 mM HEPES pH7.5, 10 mM MgCl2, 10 mM KHCO3 (carbonate substrate), 0.2 mM NADH, and 10 units/ml of malate dehydrogenase. Reaction time was 15 minutes and samples were measured on an ˜40 second interval. For measurement, which monitors loss of NADH, excitation wavelength was 340 nM and emission wavelength was 460 nM.

Molecule | M (model of inhibition)
B1 | CO
B2 | CO
B3 | CO
B4 | CO

tested on: Arabidopsis thaliana PPC1 (AtPPC1, C3 PEPC); experiment: malate dehydrogenase coupled PEPC enzymatic assay, Arabidopsis C3 PPC1 and engineered variants; assay type: biochemical; design: key to M (model of inhibition): MX—mixed; CO—competitive; NC—non-competitive; details: not given
Text: as §1, §2
as §3, with “nM. From these assays, the enzyme kinetics of Tables 4-1 and 4-2 were determined for each enzyme variant.” for “nM.”

Molecule | model of inhibition by malate
B5 | both a competitive and non-competitive way
B6 | competitive
B7 | competitive
B8 | competitive

same assay, conditions: inhibition by malate

Molecule | M (model of inhibition)
B5 | MX
B6 | CO
B9 | MX
B7 | CO
B8 | CO

Substitutions are numbered along the chain they refer to. Numbers in names are those of the source.
